From PubChem BioAssay AID662 (National Center for Advancing Translational Sciences (NCATS), 2007)
The other results are listed elsewhere or left out. The main result of the screen is listed elsewhere. These columns were measured beside it and carry no call. Compounds called inactive in the main read-out are mostly missing here. Words in brackets tell the shape of the fitted curve; partial curves, single points and poor fits give uncertain potencies.

assay: Cell signaling CRE-BLA (Fsk stim); settings: CHO CRE-bla reporter (cAMP response element driving beta-lactamase), forskolin EC10, beta-lactamase ratio; measured here: 460 nm blue channel
In short: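 Reporter-gene assay: CHO cells with beta-lactamase behind cAMP responsive elements, co-treated with compound and EC10 NKH 477 for 3 hours at 37 degrees Celsius. Activity came from the 460/530 nm CCF4 emission ratio.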

SMILES | AC50
COCCN1Cc2c(sc(C)c2C)N(C(=O)c2ccccc2)C1 | 12.6 µM [rising, single point]
COc1nc(N(C#N)CC(N)=O)nc(N2CCCC2)n1 | 10 µM [rising, partial curve]
COc1ccc(-c2cc(C(F)F)nc(-n3nc(C)cc3C)n2)cc1 | 12.6 µM [rising, partial curve]
Cc1occc1C(=O)Nc1sc2c(c1C(N)=O)CCCCC2 | 0.316 µM [rising, full curve]
COc1cccc(/C=N/n2cncn2)c1OCC#N | 0.02 µM [falling, full curve, poor fit]
CCOC(=O)c1c(NC(=O)CSc2nnc(-c3cccnc3)n2Cc2ccco2)sc(C)c1C | 2.51 µM [rising, full curve]
CC1CCc2nc(NCCO)nc(C(F)(F)F)c2C1 (stereo not drawn) | 12.6 µM [rising, single point]
CCOCC(=O)Nc1ccc(-c2cn3cccnc3n2)cc1 | 0.251 µM [falling, full curve]
CCOC(=O)c1nc(NCc2cccnc2)c2ccccc2n1 | 12.6 µM [rising, partial curve]
C=CCn1c(CCNC(=O)C(C)(C)C)nc2ccccc21 | 0.0794 µM [falling, full curve, poor fit]
O=C(Nc1ccc2c(c1)OCO2)C1Cc2ccccc2CN1S(=O)(=O)c1cccs1 (stereo not drawn) | 12.6 µM [falling, partial curve]
CCOC(=O)c1ccccc1NC(=O)COc1ccccc1 | 10 µM [rising, partial curve]
c1ccc(CCCNc2ncnc3nc[nH]c23)cc1 | 7.94 µM [rising, partial curve]
COc1cc2c(O)c3c(c(-c4ccc5c(c4)OCO5)c2cc1OC)C(=O)OC3 | 5.01 µM [rising, single point]
CC(=O)OC[C@H]1O[C@@H](n2ccc(=O)[nH]c2=S)C(OC(C)=O)C1OC(C)=O (stereo partly drawn) | 0.00398 µM [falling, full curve, poor fit]
COc1cc(NC(=O)c2ccc(COCC(F)(F)F)o2)cc(OC)c1OC | 15.8 µM [rising, partial curve]
CCc1cc2c(C)cc(=O)oc2cc1OC(=O)C1CCCN1C(=O)OC(C)(C)C (stereo not drawn) | 10 µM [rising, single point]
CC(=O)c1cccc(NC(=O)C2CCCC2)c1 | 1 µM [falling, single point]
CCCn1c(C)nc2c(N3CCN(C)CC3)nc(C)nc21 | 20 µM [rising, single point]
N#Cc1c(N)oc(-c2ccco2)c1-c1ccco1 | 5.01 µM [falling, partial curve]
COC(=O)c1ccc2ncccc2c1 | 25.1 µM [rising, single point]
CS(=O)(=O)Nc1ccccc1Oc1ccccc1 | 0.00398 µM [falling, full curve]
COc1ccccc1N1CCN(C(c2ccccc2Cl)c2nnnn2C(C)(C)C)CC1 (stereo not drawn) | 0.794 µM [rising, full curve, poor fit]

Compounds shown so far that contain an NH in an aromatic ring (2):
SMILES | AC50
c1ccc(CCCNc2ncnc3nc[nH]c23)cc1 | 7.94 µM [rising, partial curve]
CC(=O)OC[C@H]1O[C@@H](n2ccc(=O)[nH]c2=S)C(OC(C)=O)C1OC(C)=O (stereo partly drawn) | 0.00398 µM [falling, full curve, poor fit]

Later entries.

SMILES | AC50
COc1ccc(-n2nnnc2SCC(=O)c2ccc(O)c(O)c2)cc1 | 10 µM [falling, partial curve, poor fit]
O=C(CSc1nc2c(cnn2-c2ccc(F)cc2)c(=O)[nH]1)N1CCCc2ccccc21 | 0.00398 µM [falling, full curve, poor fit]
c1ccc2[nH]c(CN3CCN(c4ncnc5c4oc4ccccc45)CC3)nc2c1 | 7.94 µM [rising, partial curve]
O=C(C1CCCCC1)N1CCCC(c2nc(-c3ccc(F)cc3)no2)C1 (stereo not drawn) | 25.1 µM [rising, single point]
COCCOC(=O)C1=C(C)Nc2ncnn2C1c1ccc(F)cc1 (stereo not drawn) | 0.0794 µM [falling, single point]
COc1ccccc1N1C(=O)C2CC=CC(C)C2C1=O (stereo not drawn) | 0.794 µM [falling, partial curve]
COc1cc(OC)cc(-c2cc3nc4c(c(N5CCN(c6ncccn6)CC5)n3n2)CCCC4)c1 | 2.51 µM [rising, full curve]
O=C(NCc1ccco1)c1cc2ccc(O)cc2oc1=O | 2.51 µM [rising, full curve]
CC(C)C[C@@H](CC(=O)N[C@H](CC(=O)N[C@@H]1CCCC[C@H]1C(=O)N[C@H](CC(=O)N[C@@H](CCC(=O)O)CC(=O)O)Cc1c[nH]c2ccccc12)C(C)C)NC(=O)[C@@H]1CCCC[C@H]1N | 10 µM [falling, partial curve]
Cc1onc(-c2ccccc2Cl)c1-c1nc(-c2ccccn2)no1 | 12.6 µM [rising, single point]
Cn1c(=O)[nH]c(=O)c2c1nc1n2CCCN1CCc1ccccc1 | 10 µM [rising, partial curve]
CCc1noc(C)c1C(=O)Nc1sc(C(=O)N(C)C)c(C)c1C(=O)OC | 10 µM [rising, partial curve]
CSc1ccccc1NC(=O)c1ccoc1C | 12.6 µM [falling, partial curve]
Cc1nc2ccccc2c2oc(C(=O)N3CCc4ccccc4C3)cc12 | 20 µM [falling, single point]
COc1ccc(-c2nc3oc4cc(OC)ccc4c(=O)c3c(=O)n2Cc2ccco2)cc1 | 0.631 µM [rising, full curve]
CC1Cc2nc(SCC(=O)Nc3ccc4c(c3)OCO4)n(-c3ccc(F)cc3)c(=O)c2S1 (stereo not drawn) | 7.94 µM [rising, partial curve]
C=CCn1cc(C(=O)NCc2cccnc2)c(=O)c2cc(S(=O)(=O)N(CC)CC)ccc21 | 5.01 µM [rising, full curve]
CCOC(=O)c1c(NC(=O)Cc2cccs2)sc(C(=O)N2CCCCC2)c1C | 2.51 µM [rising, full curve]
Cc1ccc(CCNC(=O)C2CCN(C(=O)c3sccc3-n3cccc3)CC2)cc1 | 0.00398 µM [falling, full curve, poor fit]
COc1ccc(-c2nc3cnc(Oc4ccccc4)nc3n(C3CC3)c2=O)cc1 | 10 µM [rising, partial curve]
CCOC(=O)c1sc2ncn(C(CC)C(=O)OC)c(=O)c2c1C (stereo not drawn) | 12.6 µM [rising, partial curve]
Cc1cc(NC(=O)c2cc(-c3ccncc3)nc3c(C)cccc23)no1 | 10 µM [rising, partial curve]
COCCN(CCOC)c1ncnc2c1cnn2-c1ccc(Cl)cc1 | 10 µM [rising, partial curve]

SMILES | AC50
CN(C)c1ccc(C(=O)OCC(=O)NC2CCCCC2)cc1 | 3.98 µM [falling, partial curve]
NCCCCCCCCCCN | 12.6 µM [falling, single point]
Cc1ccc2oc(=O)c3cc(C(=O)N4CCN(C(=O)c5ccco5)CC4)sc3c2c1 | 3.16 µM [rising, single point]
COc1ccc(OCCOC(=O)c2cccc(-n3cnnn3)c2)cc1 | 10 µM [rising, partial curve]
COC(=O)[C@@]1(Cc2ccccc2)[C@H]2c3cc(C(=O)N4CCCC4)[nH]c3C[C@H]2CN1C(=O)c1ccccc1 | 3.16 µM [rising, full curve]
COc1ccc(C(CC(=O)O)NC(=O)COc2ccccc2)cc1OC (stereo not drawn) | 5.01 µM [falling, partial curve, poor fit]
Cc1nn(Cc2ccccc2)c2sc(C(=O)NCc3cccnc3)cc12 | 20 µM [rising, single point]
Cc1cc(Nc2ccc(F)cc2)n2nc(C)nc2n1 | 10 µM [rising, partial curve]
O=C1c2ccccc2S(=O)(=O)N1CCOc1ccccc1 | 0.2 µM [falling, full curve, poor fit]
Cc1ccsc1CN1CCN(c2ccccn2)CC1 | 0.00316 µM [falling, full curve, poor fit]
COc1cccc(NC(=O)CCCn2c(=O)[nH]c3ccccc3c2=O)c1 | 1.26 µM [rising, partial curve]
O=c1c(-c2ccc(F)cc2)nc2cnc(N3CCNCC3)nc2n1Cc1ccc(F)cc1 | 2 µM [rising, full curve]
COc1ccc(-n2c(=O)cnc3cnc(N(C)C)nc32)cc1 | 10 µM [rising, partial curve]
CN(N=O)C(=O)N[C@H]1C(O)OC(CO)[C@@H](O)[C@H]1O (stereo partly drawn) | 12.6 µM [falling, partial curve, poor fit]
Cn1c(C(=O)N2CCN(c3ccc(Cl)cc3)CC2)cc2c(=O)[nH]c3ccccc3c21 | 0.00316 µM [falling, full curve, poor fit]
COc1ccccc1NC(=O)CSc1nccc(=O)[nH]1 | 0.398 µM [rising, full curve]
N[C@@H](C(=O)O)c1ccc(C(=O)O)c(C(=O)O)c1 | 31.6 µM [falling, single point]
CCOC(=O)C1CCCN(c2ncnc3c2cnn3-c2ccc(OC)cc2)C1 (stereo not drawn) | 25.1 µM [rising, single point]
CC1=C(C#N)C(C(F)(F)F)(C(F)(F)F)N=C(c2ccco2)N1 | 12.6 µM [falling, partial curve]
Cc1ccc(C(O)CN2C3=NCCN3c3ccccc32)cc1 (stereo not drawn) | 5.01 µM [rising, single point]
COc1ccc(CC/C(=N\O)C2(O)CCCCC2)cc1 | 0.501 µM [falling, partial curve]
COc1ccccc1-c1nnc(SC/C(O)=C(\C#N)c2nc3ccccc3[nH]2)n1C1CCCCC1 | 25.1 µM [rising, single point]
